Here are results for 13 targets from the supplement of paper PMC6411743.

Protein sequences, listed by entry. Tags and fused reporters are not part of them. Lines headed by an entry give the natural chain unless they say otherwise; changes in a name come on top.
UniProt Q96ND0: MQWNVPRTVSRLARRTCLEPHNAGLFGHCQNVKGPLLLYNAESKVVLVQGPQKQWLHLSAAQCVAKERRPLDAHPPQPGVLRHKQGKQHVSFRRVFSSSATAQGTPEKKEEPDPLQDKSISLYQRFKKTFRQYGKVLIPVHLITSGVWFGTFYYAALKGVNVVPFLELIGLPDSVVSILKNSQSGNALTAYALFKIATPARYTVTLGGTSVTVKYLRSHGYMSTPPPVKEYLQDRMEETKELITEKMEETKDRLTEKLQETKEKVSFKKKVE
UniProt Q01130: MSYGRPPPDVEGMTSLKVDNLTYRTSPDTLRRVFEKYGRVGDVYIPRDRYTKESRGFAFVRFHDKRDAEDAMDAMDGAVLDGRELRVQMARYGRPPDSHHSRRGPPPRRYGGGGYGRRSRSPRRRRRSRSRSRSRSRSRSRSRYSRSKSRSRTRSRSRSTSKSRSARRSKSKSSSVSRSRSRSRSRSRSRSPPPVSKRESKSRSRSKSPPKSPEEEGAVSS
UniProt P14314: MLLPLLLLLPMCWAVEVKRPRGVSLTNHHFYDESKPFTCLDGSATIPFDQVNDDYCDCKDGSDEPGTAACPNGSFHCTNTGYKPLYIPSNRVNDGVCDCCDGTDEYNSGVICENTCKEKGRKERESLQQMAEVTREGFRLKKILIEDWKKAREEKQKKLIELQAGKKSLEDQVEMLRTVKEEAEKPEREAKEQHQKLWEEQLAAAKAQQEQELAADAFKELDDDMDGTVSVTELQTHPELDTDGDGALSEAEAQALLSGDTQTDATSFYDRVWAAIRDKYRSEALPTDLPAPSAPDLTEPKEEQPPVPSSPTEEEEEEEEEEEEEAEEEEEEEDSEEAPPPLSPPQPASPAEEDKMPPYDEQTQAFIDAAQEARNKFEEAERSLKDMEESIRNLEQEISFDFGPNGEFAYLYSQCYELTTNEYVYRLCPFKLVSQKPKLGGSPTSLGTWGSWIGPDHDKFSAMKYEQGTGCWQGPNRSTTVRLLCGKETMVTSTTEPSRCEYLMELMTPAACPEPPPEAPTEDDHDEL
UniProt Q9H9Q4: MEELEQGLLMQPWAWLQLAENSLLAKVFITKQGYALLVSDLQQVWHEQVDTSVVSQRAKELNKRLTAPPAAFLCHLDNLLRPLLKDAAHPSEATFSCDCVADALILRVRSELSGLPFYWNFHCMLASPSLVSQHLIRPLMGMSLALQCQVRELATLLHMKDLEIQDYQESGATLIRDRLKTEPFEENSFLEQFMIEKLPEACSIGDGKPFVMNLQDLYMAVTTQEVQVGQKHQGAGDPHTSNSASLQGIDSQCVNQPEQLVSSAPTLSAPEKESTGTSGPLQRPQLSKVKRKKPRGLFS
UniProt Q15653: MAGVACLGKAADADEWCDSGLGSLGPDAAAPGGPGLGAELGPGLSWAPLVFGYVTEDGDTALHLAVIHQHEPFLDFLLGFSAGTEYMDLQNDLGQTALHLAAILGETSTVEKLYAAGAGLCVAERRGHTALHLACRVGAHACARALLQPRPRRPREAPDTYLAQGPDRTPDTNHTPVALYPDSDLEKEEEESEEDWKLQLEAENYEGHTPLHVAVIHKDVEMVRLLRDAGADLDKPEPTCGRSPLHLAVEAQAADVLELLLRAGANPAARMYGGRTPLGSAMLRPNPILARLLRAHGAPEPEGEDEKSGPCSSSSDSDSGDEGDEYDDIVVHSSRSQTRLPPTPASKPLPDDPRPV
UniProt Q8NEW0: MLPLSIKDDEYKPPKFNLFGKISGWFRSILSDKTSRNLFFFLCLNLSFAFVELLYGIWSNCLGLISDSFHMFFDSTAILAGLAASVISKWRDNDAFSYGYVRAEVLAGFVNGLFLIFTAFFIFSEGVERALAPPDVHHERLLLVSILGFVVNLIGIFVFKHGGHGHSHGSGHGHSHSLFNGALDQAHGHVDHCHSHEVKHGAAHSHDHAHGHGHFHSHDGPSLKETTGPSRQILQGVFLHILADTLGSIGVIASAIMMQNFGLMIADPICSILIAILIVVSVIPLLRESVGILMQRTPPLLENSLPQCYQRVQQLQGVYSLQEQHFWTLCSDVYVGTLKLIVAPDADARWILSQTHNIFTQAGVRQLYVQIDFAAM
UniProt Q8WYJ6: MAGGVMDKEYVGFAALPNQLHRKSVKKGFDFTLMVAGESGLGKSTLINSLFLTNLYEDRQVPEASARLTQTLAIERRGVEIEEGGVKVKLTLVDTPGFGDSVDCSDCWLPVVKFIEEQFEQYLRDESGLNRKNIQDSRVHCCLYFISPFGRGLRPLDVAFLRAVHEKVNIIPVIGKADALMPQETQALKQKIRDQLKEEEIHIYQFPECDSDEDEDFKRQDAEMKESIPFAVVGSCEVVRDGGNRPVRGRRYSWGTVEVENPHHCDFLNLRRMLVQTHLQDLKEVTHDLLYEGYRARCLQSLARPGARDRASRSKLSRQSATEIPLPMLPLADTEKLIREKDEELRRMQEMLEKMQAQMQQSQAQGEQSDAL
UniProt Q8WUI4: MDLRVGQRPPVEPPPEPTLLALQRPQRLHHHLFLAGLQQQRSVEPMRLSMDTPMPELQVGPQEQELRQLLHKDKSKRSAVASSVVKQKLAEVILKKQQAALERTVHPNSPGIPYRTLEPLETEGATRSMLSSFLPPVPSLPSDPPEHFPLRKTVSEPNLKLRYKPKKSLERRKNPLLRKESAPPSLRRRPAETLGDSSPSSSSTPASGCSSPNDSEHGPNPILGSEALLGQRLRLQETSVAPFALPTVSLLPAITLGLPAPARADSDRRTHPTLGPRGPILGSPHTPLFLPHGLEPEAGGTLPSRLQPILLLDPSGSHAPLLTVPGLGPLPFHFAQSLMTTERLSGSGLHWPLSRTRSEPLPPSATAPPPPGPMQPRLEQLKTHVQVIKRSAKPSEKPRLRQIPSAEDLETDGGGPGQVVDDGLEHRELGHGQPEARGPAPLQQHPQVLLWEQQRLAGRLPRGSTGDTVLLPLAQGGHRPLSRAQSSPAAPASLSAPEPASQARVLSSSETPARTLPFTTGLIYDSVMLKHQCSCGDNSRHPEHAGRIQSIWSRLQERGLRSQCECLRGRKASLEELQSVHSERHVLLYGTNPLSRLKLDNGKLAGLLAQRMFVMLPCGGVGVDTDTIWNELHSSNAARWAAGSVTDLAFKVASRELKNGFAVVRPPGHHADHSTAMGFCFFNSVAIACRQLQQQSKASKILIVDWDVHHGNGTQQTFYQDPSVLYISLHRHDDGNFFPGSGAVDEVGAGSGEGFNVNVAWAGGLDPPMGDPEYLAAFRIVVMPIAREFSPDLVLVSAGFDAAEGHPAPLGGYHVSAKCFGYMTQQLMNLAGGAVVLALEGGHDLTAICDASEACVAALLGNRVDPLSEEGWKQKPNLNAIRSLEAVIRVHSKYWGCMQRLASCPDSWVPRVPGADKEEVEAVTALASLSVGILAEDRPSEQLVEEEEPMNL
UniProt Q9H0E3: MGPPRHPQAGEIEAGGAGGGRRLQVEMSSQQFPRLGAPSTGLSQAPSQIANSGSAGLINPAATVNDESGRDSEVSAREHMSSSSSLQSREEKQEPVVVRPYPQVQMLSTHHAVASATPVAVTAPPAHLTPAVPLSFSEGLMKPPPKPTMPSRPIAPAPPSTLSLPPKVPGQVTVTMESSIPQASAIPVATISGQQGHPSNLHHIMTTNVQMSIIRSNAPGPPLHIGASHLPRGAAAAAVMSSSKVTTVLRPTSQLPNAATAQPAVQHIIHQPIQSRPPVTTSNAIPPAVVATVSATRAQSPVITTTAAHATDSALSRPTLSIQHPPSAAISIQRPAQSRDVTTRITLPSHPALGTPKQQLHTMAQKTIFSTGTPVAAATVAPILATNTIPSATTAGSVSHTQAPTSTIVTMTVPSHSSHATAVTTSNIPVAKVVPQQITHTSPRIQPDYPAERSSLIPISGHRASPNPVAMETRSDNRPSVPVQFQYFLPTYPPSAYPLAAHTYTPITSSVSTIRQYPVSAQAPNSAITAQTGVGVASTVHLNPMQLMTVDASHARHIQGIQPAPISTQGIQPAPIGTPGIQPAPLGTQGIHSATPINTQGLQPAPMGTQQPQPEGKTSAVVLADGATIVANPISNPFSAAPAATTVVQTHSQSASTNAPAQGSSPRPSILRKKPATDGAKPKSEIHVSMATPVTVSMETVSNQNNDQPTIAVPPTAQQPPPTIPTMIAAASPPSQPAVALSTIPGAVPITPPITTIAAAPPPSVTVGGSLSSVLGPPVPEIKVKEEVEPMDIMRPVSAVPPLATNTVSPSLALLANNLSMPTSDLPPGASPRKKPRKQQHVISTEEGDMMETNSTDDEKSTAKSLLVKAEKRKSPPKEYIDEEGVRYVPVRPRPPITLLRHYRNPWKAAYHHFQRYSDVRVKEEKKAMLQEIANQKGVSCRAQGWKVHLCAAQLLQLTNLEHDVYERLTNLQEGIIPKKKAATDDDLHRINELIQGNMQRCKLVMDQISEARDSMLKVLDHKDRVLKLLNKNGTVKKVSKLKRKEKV
UniProt Q16543: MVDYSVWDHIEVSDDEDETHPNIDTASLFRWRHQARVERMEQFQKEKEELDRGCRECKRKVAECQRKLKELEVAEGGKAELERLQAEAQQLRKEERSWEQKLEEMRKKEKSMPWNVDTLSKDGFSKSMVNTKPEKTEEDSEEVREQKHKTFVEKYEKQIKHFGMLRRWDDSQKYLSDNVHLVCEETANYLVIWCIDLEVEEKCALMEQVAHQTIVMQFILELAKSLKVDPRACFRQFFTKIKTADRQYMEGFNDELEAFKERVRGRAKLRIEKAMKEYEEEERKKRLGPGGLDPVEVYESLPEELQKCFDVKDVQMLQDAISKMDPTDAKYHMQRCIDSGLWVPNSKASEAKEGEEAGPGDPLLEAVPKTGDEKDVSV
UniProt P09493, whole entry: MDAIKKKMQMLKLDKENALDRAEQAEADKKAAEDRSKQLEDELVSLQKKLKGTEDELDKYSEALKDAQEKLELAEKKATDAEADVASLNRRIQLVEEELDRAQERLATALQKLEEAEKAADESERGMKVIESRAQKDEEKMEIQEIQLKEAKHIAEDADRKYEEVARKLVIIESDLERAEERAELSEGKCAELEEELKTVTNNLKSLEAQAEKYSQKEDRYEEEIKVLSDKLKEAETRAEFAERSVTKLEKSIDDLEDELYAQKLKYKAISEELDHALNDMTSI
UniProt H0UI80: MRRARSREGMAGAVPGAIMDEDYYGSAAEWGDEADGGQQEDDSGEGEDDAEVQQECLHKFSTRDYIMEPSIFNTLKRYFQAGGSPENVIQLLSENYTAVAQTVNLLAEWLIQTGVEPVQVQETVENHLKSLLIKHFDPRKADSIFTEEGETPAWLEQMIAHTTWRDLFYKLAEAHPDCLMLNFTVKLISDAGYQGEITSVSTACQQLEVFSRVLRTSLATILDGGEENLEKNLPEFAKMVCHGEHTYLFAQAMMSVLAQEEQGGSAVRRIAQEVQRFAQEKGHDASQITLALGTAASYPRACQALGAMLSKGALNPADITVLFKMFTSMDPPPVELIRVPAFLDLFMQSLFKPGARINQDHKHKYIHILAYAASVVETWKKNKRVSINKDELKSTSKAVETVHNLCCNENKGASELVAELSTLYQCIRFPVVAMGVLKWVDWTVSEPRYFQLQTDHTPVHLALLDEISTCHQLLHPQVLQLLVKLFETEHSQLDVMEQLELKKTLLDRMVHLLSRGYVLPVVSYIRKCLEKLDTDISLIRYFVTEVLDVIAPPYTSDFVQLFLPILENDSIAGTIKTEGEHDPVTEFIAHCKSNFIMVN
UniProt Q8IXH7, whole entry, looked up: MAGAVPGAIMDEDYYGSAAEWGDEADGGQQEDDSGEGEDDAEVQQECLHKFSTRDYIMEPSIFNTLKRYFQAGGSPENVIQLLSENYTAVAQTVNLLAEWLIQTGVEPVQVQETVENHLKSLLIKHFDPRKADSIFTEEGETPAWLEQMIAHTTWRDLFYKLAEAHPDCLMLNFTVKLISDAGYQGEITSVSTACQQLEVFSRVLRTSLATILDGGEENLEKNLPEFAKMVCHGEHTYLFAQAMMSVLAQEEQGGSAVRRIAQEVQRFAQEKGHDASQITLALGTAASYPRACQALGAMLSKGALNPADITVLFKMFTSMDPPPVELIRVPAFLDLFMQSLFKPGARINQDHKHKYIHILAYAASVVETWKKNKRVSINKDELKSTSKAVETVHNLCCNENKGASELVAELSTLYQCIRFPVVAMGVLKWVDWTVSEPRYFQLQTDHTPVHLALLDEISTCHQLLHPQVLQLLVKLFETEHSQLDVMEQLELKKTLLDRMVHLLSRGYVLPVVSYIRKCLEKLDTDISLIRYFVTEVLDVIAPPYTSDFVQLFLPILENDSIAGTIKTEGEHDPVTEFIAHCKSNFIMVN

Compound in this assay: Nc1nc2c(ncn2[C@@H]2O[C@H](COP(=O)(O)OP(=O)(O)OP(=O)(O)O)[C@@H](O)[C@H]2O)c(=O)[nH]1 [guanosine triphosphate]
The experiment in a line: NP40-soluble protein abundance relative to vehicle (solubility fold change) (ratio); higher = more soluble protein in presence of GTP. The essentials: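 In three independent experiments, Jurkat crude lysate made by Dounce homogenisation was treated for 10 min at room temperature and then 3 min at 37 °C with eight concentrations ranging from 0.1 to 10 mM. It was then solubilised with 0.8% NP40 plus benzonase for 60 min at 4 °C and ultracentrifuged. The supernatant was TMT-labelled for LC-MS/MS, and each value is the fold change against the detergent-processed vehicle for the same replicate, using vsn-normalised intensities.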

± gives the standard deviation of the averaged measurements. This is one part of the list.

As for “K7EK00 and related entries (UniProt Q96ND0)”, the NP40-soluble protein abundance was found to be 0.946 ± 0.018 (concentration: 0.1mM); 0.904 ± 0.09 (concentration: 0.5mM); 0.933 ± 0.027 (concentration: 1mM); 0.937 ± 0.033 (concentration: 2mM); 0.946 ± 0.024 (concentration: 4mM); 0.934 ± 0.069 (concentration: 6mM). Moreover, the NP40-soluble protein abundance is, setting by setting: (concentration: 8mM) 0.916 ± 0.036; (concentration: 10mM) 0.8929 ± 0.0026.
“J3KP15 and related entries (UniProt Q01130)”: the NP40-soluble protein abundance reads like this: (concentration: 0.1mM) 1.02 ± 0.089; (concentration: 0.5mM) 1.06 ± 0.092; (concentration: 1mM) 1.19 ± 0.11; (concentration: 2mM) 1.08 ± 0.15; (concentration: 4mM) 1.11 ± 0.13; (concentration: 6mM) 1.12 ± 0.13. For the same target, the NP40-soluble protein abundance runs as follows: (concentration: 8mM) 1.26 ± 0.11; (concentration: 10mM) 1.16 ± 0.098.
As to “K7ELL7 and related entries (UniProt P14314)”, the NP40-soluble protein abundance runs as follows: (concentration: 0.1mM) 0.9 ± 0.096; (concentration: 0.5mM) 0.919 ± 0.11; (concentration: 1mM) 0.942 ± 0.11; (concentration: 2mM) 0.888 ± 0.12; (concentration: 4mM) 0.891 ± 0.11; (concentration: 6mM) 0.899 ± 0.095. For the same target, the NP40-soluble protein abundance by setting is: (concentration: 8mM) 0.92 ± 0.11; (concentration: 10mM) 0.936 ± 0.12.
For the target “H7C0G7 and related entries (UniProt Q9H9Q4)”, the NP40-soluble protein abundance is 1.01 ± 0.059 (concentration: 0.1mM); 1.11 ± 0.05 (concentration: 0.5mM); 1.11 ± 0.09 (concentration: 1mM); 1.15 ± 0.066 (concentration: 2mM); 1.12 ± 0.16 (concentration: 4mM); 1.07 ± 0.13 (concentration: 6mM). Also, the NP40-soluble protein abundance (concentration: 8mM) was 1.14 ± 0.16 and the NP40-soluble protein abundance (concentration: 10mM) worked out at 1.19 ± 0.25.
“G5E9C2 and related entries (UniProt Q15653)”: the NP40-soluble protein abundance (concentration: 0.1mM) worked out at 1.04 ± 0.12; the NP40-soluble protein abundance (concentration: 0.5mM) turned out to be 0.975 ± 0.12; the NP40-soluble protein abundance (concentration: 1mM) came out at 0.999 ± 0.07; the NP40-soluble protein abundance (concentration: 2mM) worked out at 0.984 ± 0.07; the NP40-soluble protein abundance (concentration: 4mM) is 0.982 ± 0.054; the NP40-soluble protein abundance (concentration: 6mM) stood at 0.95 ± 0.069. The NP40-soluble protein abundance is, setting by setting: (concentration: 8mM) 0.9806 ± 0.0057; (concentration: 10mM) 0.947 ± 0.03.
For “H0Y362 and related entries (UniProt Q8NEW0)”, the NP40-soluble protein abundance (concentration: 0.1mM) was found to be 1.21 ± 0.043; the NP40-soluble protein abundance (concentration: 0.5mM) amounted to 1.14 ± 0.018; the NP40-soluble protein abundance (concentration: 1mM) was 1.14 ± 0.026; the NP40-soluble protein abundance (concentration: 2mM) turned out to be 1.13 ± 0.1; the NP40-soluble protein abundance (concentration: 4mM) was found to be 1.05 ± 0.062; the NP40-soluble protein abundance (concentration: 6mM) was determined as 1.05 ± 0.11. Besides, the NP40-soluble protein abundance (concentration: 8mM) was 1.04 ± 0.055 and the NP40-soluble protein abundance (concentration: 10mM) turned out to be 0.959 ± 0.013.
As to “I3L2M1 and related entries (UniProt Q8WYJ6)”, the NP40-soluble protein abundance is, setting by setting: (concentration: 0.1mM) 0.998 ± 0.041; (concentration: 0.5mM) 0.995 ± 0.026; (concentration: 1mM) 0.991 ± 0.033; (concentration: 2mM) 0.958 ± 0.037; (concentration: 4mM) 0.985 ± 0.038; (concentration: 6mM) 0.957 ± 0.016. Moreover, the NP40-soluble protein abundance was 0.971 ± 0.029 (concentration: 8mM) and 0.96 ± 0.024 (concentration: 10mM).
For the target “J3KPH8 and related entries (UniProt Q8WUI4)”, the NP40-soluble protein abundance stood at 1.11 ± 0.096 (concentration: 0.1mM); 1.02 ± 0.028 (concentration: 0.5mM); 1.05 ± 0.089 (concentration: 1mM); 0.977 ± 0.079 (concentration: 2mM); 1.01 ± 0.084 (concentration: 4mM); 0.952 ± 0.026 (concentration: 6mM). Moreover, the NP40-soluble protein abundance reads like this: (concentration: 8mM) 1.03 ± 0.096; (concentration: 10mM) 0.982 ± 0.076.
Take “H7BXF5 and related entries (UniProt Q9H0E3)”: the NP40-soluble protein abundance runs as follows: (concentration: 0.1mM) 1.03 ± 0.037; (concentration: 0.5mM) 0.971 ± 0.052; (concentration: 1mM) 1.08 ± 0.074; (concentration: 2mM) 1.08 ± 0.065; (concentration: 4mM) 1.12 ± 0.12; (concentration: 6mM) 1.14 ± 0.15. In addition, the NP40-soluble protein abundance (concentration: 8mM) turned out to be 1.16 ± 0.12 and the NP40-soluble protein abundance (concentration: 10mM) amounted to 1.2 ± 0.17.
“K7EL68 and related entries (UniProt Q16543)”: the NP40-soluble protein abundance by setting is: (concentration: 0.1mM) 0.91 ± 0.071; (concentration: 0.5mM) 0.939 ± 0.091; (concentration: 1mM) 0.964 ± 0.11; (concentration: 2mM) 0.927 ± 0.14; (concentration: 4mM) 0.901 ± 0.11; (concentration: 6mM) 0.931 ± 0.13. Besides, the NP40-soluble protein abundance runs as follows: (concentration: 8mM) 0.914 ± 0.073; (concentration: 10mM) 0.928 ± 0.1.
“H0YK48 and related entries (UniProt P09493)”: the NP40-soluble protein abundance is, setting by setting: (concentration: 0.1mM) 0.878 ± 0.19; (concentration: 0.5mM) 0.762 ± 0.021; (concentration: 1mM) 1.45 ± 0.24; (concentration: 2mM) 1.2 ± 0.2; (concentration: 4mM) 1.28 ± 0.066; (concentration: 6mM) 1.21 ± 0.11. Also, the NP40-soluble protein abundance runs as follows: (concentration: 8mM) 1.1 ± 0.019; (concentration: 10mM) 1.37 ± 0.26.
On to “H0UI80 and related entries (UniProt X6RLT1+Q8IXH7+H0UI80)”, for which the NP40-soluble protein abundance reads like this: (concentration: 0.1mM) 1.01 ± 0.017; (concentration: 0.5mM) 0.973 ± 0.038; (concentration: 1mM) 0.965 ± 0.024; (concentration: 2mM) 0.968 ± 0.012; (concentration: 4mM) 0.981 ± 0.011; (concentration: 6mM) 0.978 ± 0.01. In addition, the NP40-soluble protein abundance is, setting by setting: (concentration: 8mM) 0.97 ± 0.039; (concentration: 10mM) 0.95 ± 0.0096.
“H0Y400 and related entries (UniProt Q13838)”: the NP40-soluble protein abundance is, setting by setting: (concentration: 0.1mM) 1.01 ± 0.031; (concentration: 0.5mM) 0.983 ± 0.04; (concentration: 1mM) 0.884 ± 0.056; (concentration: 2mM) 0.923 ± 0.082; (concentration: 4mM) 0.949 ± 0.076; (concentration: 6mM) 0.977 ± 0.064. The NP40-soluble protein abundance reads like this: (concentration: 8mM) 0.954 ± 0.08; (concentration: 10mM) 0.954 ± 0.091.
